Values from PubChem BioAssay AID1671195 (Yale University, 2021)

- Purpose: 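Regulators of LDL receptor activity judged by labelled LDL uptake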 (primary screen)
- Cell system: human Huh7 hepatoma cells
- Knock-down reagent: siRNA pool against human genes, 18 nM
- Duration: about 2 to 2.5 days of knockdown, then 8 h LDL uptake
- Challenge: DiI-labelled LDL at 30 µg/ml for 8 h, in lipoprotein-deficient serum medium
- Measured: 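Fluorescent LDL signal imaged in cells, scaled to the plate median, robust z-score for each replicate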
- Scale: robust z-score: higher = more LDL uptake after knockdown
- Hit rule: 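Active when two or more replicates show a robust z-score above 2 or below -2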
In all, the deposit lists about 22,000 reagents; this is an unselected part. In the full data, about 1,510 (6.9%) are marked active. 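Active includes knockdowns raising or lowering LDL uptake; positive z-scores mean more uptake, negative mean less.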 A number with no mark means an inactive call.

no.	gene	robust z-score, replicate 1	robust z-score, replicate 2	robust z-score, replicate 3
1	USP12	-0.569	-0.743	-0.688
2	EN2	-0.355	-0.152	-1.03
3	CYP4F8	-0.611	-0.44	-1.31
4	CLIC5	1.09	0.291	1.22
5	TBX20	0.407	2.41	1.25
6	DBI	-0.813	-0.704	-2.34
7	SIRPB2	-0.688	-0.646	-0.312
8	BPIFB2	-0.0232	0.155	-0.0354
9	LOC442437 (retired record)	1.27	0.867	0.828
10	TTYH3	0.114	0.505	1.26
11	MPG	-0.568	-0.606	-0.437
12	TWIST1	0.00446	-0.306	-1.02
13	CYP11A1	0.454	0.331	0.32
14	TIAM1	0.588	0.723	0.596
15	CPPED1	-2.03	0.0583	-0.502
16	AMT	0.261	0.156	-0.183
17	LINC00200	2.06	0.711	1.16
18	RPA2	0.696	0.38	0.969
19	FLJ31132 (retired record)	0.736	-0.275	-0.676
20	LOC285442	0.248	-0.128	0.0745
21	BBS2	-0.171	-0.0489	-0.154
22	IFT172	0.543	1.53	0.927
23	PARVB	-0.156	-0.529	-1.03
24	BTBD6	-1.52	-1.52	-0.871
25	SEC22B	0.232	1.09	0.743
26	GLRX5	1.04	1.36	0.617
27	CFHR5	-0.678	0.251	0.404
28	DLX6-AS1	-0.616	-0.845	-0.504
29	OR4D1	0.512	-1.01	-1.43
30	HINFP	0.63	0.708	1.02
31	YTHDF3	0.183	0.622	0.432
32	ZNF805	-0.871	-0.39	-0.701
33	DHX38	1.84	1.79	2.54
34	CCK	2.69 (active)	3.11	0.724
35	UBE2QL1	0.000518	1.13	0.849
36	PSMC5	2.97 (active)	2.44	1.57
37	OR4C12	-0.119	-0.387	-0.137
38	LINC00636	1.1	1.24	1.25
39	MBNL2	-0.557	-0.0181	-0.0666
40	GAPDH	0.21	0.0143	0.781
41	GOLGA2P10	-2.03 (active)	-2.17	-1.88
42	GRAMD4	-1.49	-0.307	-1.2
43	LHFPL6	0.16	-0.474	-0.514
44	C14orf39	1.13	1.57	1.37
45	ZNF446	-0.349	-0.278	-0.227
46	SH3GLB1	0.89	-0.0704	0.967

No new results follow: an excerpt of the list.
no.	gene	robust z-score, replicate 1	robust z-score, replicate 2	robust z-score, replicate 3
14	TIAM1	0.588	0.723	0.596
15	CPPED1	-2.03	0.0583	-0.502
16	AMT	0.261	0.156	-0.183
17	LINC00200	2.06	0.711	1.16
18	RPA2	0.696	0.38	0.969
19	FLJ31132 (retired record)	0.736	-0.275	-0.676
